Reference: patent US20260242759A1 (Vrije Universiteit Brussel, priority 2022, published 2026)
Positions of bridges follow the written chain, without caps; N, C: chain ends. Non-standard residues stand in square brackets, D forms with d. Triazole bridges read from a SMILES are 1,4-linked. Lys(N3) = [N-]=[N+]=NCCCC[C@H](N)C(=O)O; Cha = N[C@@H](CC1CCCCC1)C(=O)O; Pra = C#CC[C@H](N)C(=O)O

Assay: general procedure: Fmoc solid-phase peptide synthesis; preloaded Fmoc-Leu-Wang resin (0.6-0.75 mmol/g), Rink Amide resin (0.92 mmol/g), 2-chlorotrityl chloride resin (0.8 mmol); HBTU/DIPEA (manual, Activo-P11); DIC/Oxyma (CEM Liberty Blue)
Conditions: whole synthesis, TFA salt

Substance | isolated yield
Ac-KKKFA[Pra]VKD[Lys(N3)]ILQLNLKEYNLV-OH (triazole 6-10; SMILES CC[C@H](C)[C@H](NC(=O)[C@@H]1CCCCn2cc(nn2)C[C@H](NC(=O)[C@H](C)NC(=O)[C@H](Cc2ccccc2)NC(=O)[C@H](CCCCN)NC(=O)[C@H](CCCCN)NC(=O)[C@H](CCCCN)NC(C)=O)C(=O)N[C@@H](C(C)C)C(=O)N[C@@H](CCCCN)C(=O)N[C@@H](CC(=O)O)C(=O)N1)C(=O)N[C@@H](CC(C)C)C(=O)N[C@@H](CCC(N)=O)C(=O)N[C@@H](CC(C)C)C(=O)N[C@@H](CC(N)=O)C(=O)N[C@@H](CC(C)C)C(=O)N[C@@H](CCCCN)C(=O)N[C@@H](CCC(=O)O)C(=O)N[C@@H](Cc1ccc(O)cc1)C(=O)N[C@@H](CC(N)=O)C(=O)N[C@@H](CC(C)C)C(=O)N[C@H](C(=O)O)C(C)C) | 12%
Ac-KKKFA[Pra]VKD[Lys(N3)]ILQLNLKEYN[Cha]V-OH (triazole 6-10; SMILES CC[C@H](C)[C@H](NC(=O)[C@@H]1CCCCn2cc(nn2)C[C@H](NC(=O)[C@H](C)NC(=O)[C@H](Cc2ccccc2)NC(=O)[C@H](CCCCN)NC(=O)[C@H](CCCCN)NC(=O)[C@H](CCCCN)NC(C)=O)C(=O)N[C@@H](C(C)C)C(=O)N[C@@H](CCCCN)C(=O)N[C@@H](CC(=O)O)C(=O)N1)C(=O)N[C@@H](CC(C)C)C(=O)N[C@@H](CCC(N)=O)C(=O)N[C@@H](CC(C)C)C(=O)N[C@@H](CC(N)=O)C(=O)N[C@@H](CC(C)C)C(=O)N[C@@H](CCCCN)C(=O)N[C@@H](CCC(=O)O)C(=O)N[C@@H](Cc1ccc(O)cc1)C(=O)N[C@@H](CC(N)=O)C(=O)N[C@@H](CC1CCCCC1)C(=O)N[C@H](C(=O)O)C(C)C) | 33%
Ac-FAAVKDTILQLNLKEYNLV-OH | 17%
Ac-KKKFNDCKDIILQMNLREYN[Cha]V-OH (SMILES CC[C@H](C)[C@H](NC(=O)[C@H](CC(=O)O)NC(=O)[C@H](CCCCN)NC(=O)[C@H](CS)NC(=O)[C@H](CC(=O)O)NC(=O)[C@H](CC(N)=O)NC(=O)[C@H](Cc1ccccc1)NC(=O)[C@H](CCCCN)NC(=O)[C@H](CCCCN)NC(=O)[C@H](CCCCN)NC(C)=O)C(=O)N[C@H](C(=O)N[C@@H](CC(C)C)C(=O)N[C@@H](CCC(N)=O)C(=O)N[C@@H](CCSC)C(=O)N[C@@H](CC(N)=O)C(=O)N[C@@H](CC(C)C)C(=O)N[C@@H](CCCNC(=N)N)C(=O)N[C@@H](CCC(=O)O)C(=O)N[C@@H](Cc1ccc(O)cc1)C(=O)N[C@@H](CC(N)=O)C(=O)N[C@@H](CC1CCCCC1)C(=O)N[C@H](C(=O)O)C(C)C)[C@@H](C)CC) | 11%
Ac-FAAVKDTILQLNLKEYN[Cha]V-OH (SMILES CC[C@H](C)[C@H](NC(=O)[C@@H](NC(=O)[C@H](CC(=O)O)NC(=O)[C@H](CCCCN)NC(=O)[C@@H](NC(=O)[C@H](C)NC(=O)[C@H](C)NC(=O)[C@H](Cc1ccccc1)NC(C)=O)C(C)C)[C@@H](C)O)C(=O)N[C@@H](CC(C)C)C(=O)N[C@@H](CCC(N)=O)C(=O)N[C@@H](CC(C)C)C(=O)N[C@@H](CC(N)=O)C(=O)N[C@@H](CC(C)C)C(=O)N[C@@H](CCCCN)C(=O)N[C@@H](CCC(=O)O)C(=O)N[C@@H](Cc1ccc(O)cc1)C(=O)N[C@@H](CC(N)=O)C(=O)N[C@@H](CC1CCCCC1)C(=O)N[C@H](C(=O)O)C(C)C) | 7%
Ac-FNDCKDIILQMNLREYNLV-OH | 7%
Ac-KKKFN[Pra]CKD[Lys(N3)]ILQMNLREYN[Cha]V-OH (triazole 6-10; SMILES CC[C@H](C)[C@H](NC(=O)[C@@H]1CCCCn2cc(nn2)C[C@H](NC(=O)[C@H](CC(N)=O)NC(=O)[C@H](Cc2ccccc2)NC(=O)[C@H](CCCCN)NC(=O)[C@H](CCCCN)NC(=O)[C@H](CCCCN)NC(C)=O)C(=O)N[C@@H](CS)C(=O)N[C@@H](CCCCN)C(=O)N[C@@H](CC(=O)O)C(=O)N1)C(=O)N[C@@H](CC(C)C)C(=O)N[C@@H](CCC(N)=O)C(=O)N[C@@H](CCSC)C(=O)N[C@@H](CC(N)=O)C(=O)N[C@@H](CC(C)C)C(=O)N[C@@H](CCCNC(=N)N)C(=O)N[C@@H](CCC(=O)O)C(=O)N[C@@H](Cc1ccc(O)cc1)C(=O)N[C@@H](CC(N)=O)C(=O)N[C@@H](CC1CCCCC1)C(=O)N[C@H](C(=O)O)C(C)C) | 11%
Ac-KKKFNDCKDIILQMNLREYNLV-OH | 11%
Ac-KKKFN[Pra]CKD[Lys(N3)]ILQMNLREYNLV-OH (triazole 6-10; SMILES CC[C@H](C)[C@H](NC(=O)[C@@H]1CCCCn2cc(nn2)C[C@H](NC(=O)[C@H](CC(N)=O)NC(=O)[C@H](Cc2ccccc2)NC(=O)[C@H](CCCCN)NC(=O)[C@H](CCCCN)NC(=O)[C@H](CCCCN)NC(C)=O)C(=O)N[C@@H](CS)C(=O)N[C@@H](CCCCN)C(=O)N[C@@H](CC(=O)O)C(=O)N1)C(=O)N[C@@H](CC(C)C)C(=O)N[C@@H](CCC(N)=O)C(=O)N[C@@H](CCSC)C(=O)N[C@@H](CC(N)=O)C(=O)N[C@@H](CC(C)C)C(=O)N[C@@H](CCCNC(=N)N)C(=O)N[C@@H](CCC(=O)O)C(=O)N[C@@H](Cc1ccc(O)cc1)C(=O)N[C@@H](CC(N)=O)C(=O)N[C@@H](CC(C)C)C(=O)N[C@H](C(=O)O)C(C)C) | 10%
Ac-KKKFAAVKDTILQLNLKEYNLV-OH | 19%
Ac-FNDCKDIILQMNLREYN[Cha]V-OH (SMILES CC[C@H](C)[C@H](NC(=O)[C@H](CC(=O)O)NC(=O)[C@H](CCCCN)NC(=O)[C@H](CS)NC(=O)[C@H](CC(=O)O)NC(=O)[C@H](CC(N)=O)NC(=O)[C@H](Cc1ccccc1)NC(C)=O)C(=O)N[C@H](C(=O)N[C@@H](CC(C)C)C(=O)N[C@@H](CCC(N)=O)C(=O)N[C@@H](CCSC)C(=O)N[C@@H](CC(N)=O)C(=O)N[C@@H](CC(C)C)C(=O)N[C@@H](CCCNC(=N)N)C(=O)N[C@@H](CCC(=O)O)C(=O)N[C@@H](Cc1ccc(O)cc1)C(=O)N[C@@H](CC(N)=O)C(=O)N[C@@H](CC1CCCCC1)C(=O)N[C@H](C(=O)O)C(C)C)[C@@H](C)CC) | 3%
Ac-KKKFAAVKDTILQLNLKEYN[Cha]V-OH (SMILES CC[C@H](C)[C@H](NC(=O)[C@@H](NC(=O)[C@H](CC(=O)O)NC(=O)[C@H](CCCCN)NC(=O)[C@@H](NC(=O)[C@H](C)NC(=O)[C@H](C)NC(=O)[C@H](Cc1ccccc1)NC(=O)[C@H](CCCCN)NC(=O)[C@H](CCCCN)NC(=O)[C@H](CCCCN)NC(C)=O)C(C)C)[C@@H](C)O)C(=O)N[C@@H](CC(C)C)C(=O)N[C@@H](CCC(N)=O)C(=O)N[C@@H](CC(C)C)C(=O)N[C@@H](CC(N)=O)C(=O)N[C@@H](CC(C)C)C(=O)N[C@@H](CCCCN)C(=O)N[C@@H](CCC(=O)O)C(=O)N[C@@H](Cc1ccc(O)cc1)C(=O)N[C@@H](CC(N)=O)C(=O)N[C@@H](CC1CCCCC1)C(=O)N[C@H](C(=O)O)C(C)C) | 14%
